Measured values: article PMC5629014, “Assessment of sesquiterpene lactones isolated from Mikania plants species for their potential efficacy against Trypanosoma cruzi and Leishmania sp” (PLoS Neglected Tropical Diseases, 2017)

What was measured:
[1] = test system: T. cruzi bloodstream trypomastigotes; assay: Trypanocidal effect on bloodstream trypomastigotes, live parasite count in Neubauer chamber; assay type: cell-based, Trypanosoma cruzi; details: SI = CC50/IC50, CC50 on THP1
Procedure: (§1) Trypanosoma cruzi epimastigotes (RA strain) were grown in a biphasic medium. Cultures were routinely maintained by weekly passages at 28°C. T. cruzi bloodstream trypomastigotes (RA strain) and the recombinant Tulahuen strain expressing β-galactosidase (Tul-β-Gal) were obtained from infected CF1 mice by cardiac puncture at the peak of parasitemia on day 15 post-infection. Trypomastigotes were routinely maintained by infecting 21-day-old CF1 mice.
The trypanocidal effect of the purified compounds was also tested on bloodstream trypomastigotes. Briefly, mouse blood containing trypomastigotes was diluted in complete RPMI -1640 Medium (Sigma-Aldrich R6504- Batch 029K83102) with 10% (vol/vol) fetal calf serum (FCS) (Internegocios) to adjust the parasite concentration to 3 × 10^5/mL. Parasites were seeded in duplicate in a 96-well microplate in the presence of each compound (0–50 μg/mL) or controls and incubated at 4 °C for 24 h. The number of remaining living parasites in each sample was determined in 5 μL of cell suspension diluted 1/5 in lysis buffer (0.75% NH4Cl, 0.2% Tris, pH 7.2) and counted in a Neubauer chamber. Benznidazole was used as positive control.

[2] = test system: Leishmania braziliensis promastigotes (MHOM/BR/75/M2903 strain); assay: Growth inhibition of Leishmania braziliensis promastigotes, MTT method; assay type: cell-based; details: SI = CC50/IC50, CC50 on THP1
Procedure: Leishmania braziliensis promastigotes (MHOM/BR/75/M2903 strain) were grown in liver infusion tryptose medium LIT, which was prepared as follows: 5 g/L liver infusion (Sigma 2023-072K1066), 5 g/L tryptose (Britania), 2 g/L glucose (Sigma), 68 mM NaCl, 5.4 mM KCl, 22 mM HPO4Na2, supplemented with 20 mg/L hemin (Sigma) and 10% (vol/vol) fetal calf serum (FCS) (Internegocios). Culture maintenance was performed by weekly passages at 26°C.
The growth inhibition of Leishmania braziliensis promastigotes was evaluated by the MTT method. Parasites (5x10^6) were settled at a final volume of 150 μL in a flat-bottom 96-well microplate and cultured at 37°C in a 5% CO2 atmosphere in the absence or presence of increasing concentrations of the pure compounds. After 72 h, 3-(4,5- dimethylthiazol-2-yl)-2,5-diphenyltetrazolium bromide (MTT) was added at a final concentration of 1.5 mg/mL. Plates were incubated for 2 h at 37°C. The purple formazan crystals formed were completely dissolved by adding 150 μL of ethanol and the absorbance was read at 595 nm in a microplate reader. The inhibition percentage was calculated as {100 − [(DO595nm of treated parasites/ DO595nm of untreated parasites) × 100]}. Compounds were tested at 0–50 μg/mL. Amphotericin B was used as positive control.

T. cruzi amastigotes = assay: Inhibition of intracellular amastigotes, β-galactosidase transfected parasites in Raw 264.7 cells (CPRG); assay type: cell-based, Trypanosoma cruzi
Procedure: as §1
The effect of each compound on intracellular forms of T. cruzi was assayed using β-galactosidase transfected parasites. Briefly, 96-well plates were seeded with Raw 264.7 cells at 5x10^3 per well in […] of culture medium and incubated for 24 h at 37 °C in a 5% CO2 atmosphere. Cells were washed and infected with transfected blood trypomastigotes expressing β-galactosidase at a parasite/cell ratio of 10:1. After 12 h of co- culture, plates were washed twice with PBS to remove unbound parasites and each pure compound was added at different concentrations (0.001–50 μg/mL) in 150 μL of fresh complete RPMI medium without phenol red (Gibco, Rockville, MD). Controls included infected untreated cells (100% infection control) and uninfected cells (0% infection control). The assay was developed 5 days later by the addition of chlorophenol red-β-D-galactopyranoside (CPRG) (100 mM) and 1% Nonidet P40. Plates were then incubated for 4–6 h at 37 °C and the absorbance was measured at 595 nm in a microplate reader (Bio-Rad Laboratories, Hercules, CA). The percentage inhibition was calculated as 100–{[(absorbance of treated infected cells)/(absorbance of untreated infected cells) x 100} and the IC50 value was estimated. Benznidazole was used as positive control.

C=C1C(=O)OC2CC3(C)OC3CCC3=CC(OC3=O)C12 (centres unmarked) [deoxymikanolide]
SI T. cruzi trypomastigotes [1]: 54
SI L. braziliensis promastigotes [2]: 6.9
SI T. cruzi amastigotes (T. cruzi amastigotes; SI = CC50/IC50, CC50 on THP1): 12.5

C[C@H]1C(=O)O[C@H]2C[C@]3(C)O[C@H]3[C@@H]3O[C@@H]3C3=C[C@@H](OC3=O)[C@@H]21 [dihydromikanolide]
SI T. cruzi trypomastigotes [1]: 50
SI T. cruzi trypomastigotes ([1]; listed as Dihydromikanolide): 49.9
SI L. braziliensis promastigotes [2]: 0.2
SI T. cruzi amastigotes (T. cruzi amastigotes; SI = CC50/IC50, CC50 on THP1): 1.52

C=C1C(=O)OC2CC3(C)OC3C3OC3C3=CC(OC3=O)C12 (centres unmarked) [mikanolide]
SI T. cruzi trypomastigotes [1]: 10.66
SI T. cruzi trypomastigotes ([1]; listed as Mikanolide): 10.7
SI L. braziliensis promastigotes [2]: 4.4
SI T. cruzi amastigotes (T. cruzi amastigotes; ratio CC50 / IC50): 4.96

C=C1C(=O)OC2CC3(C)OC3CC(OC(C)=O)C3=CC(OC3=O)C12 (centres unmarked) [scandenolide]
SI T. cruzi trypomastigotes [1]: 12.6
SI L. braziliensis promastigotes [2]: 3.4
SI T. cruzi amastigotes (T. cruzi amastigotes; SI = CC50/IC50, CC50 on THP1): 14.2
